PubChem BioAssay AID504793 – Drosophila RNAi Screening Center, 2011
The screen tested about 23,000 reagents; below is an unselected part of those with a known target gene and a result. Over the whole deposit, 62 (0.27%) are marked active. 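Calls come from follow-up tests whose scores are not deposited, so confirmed genes may have low counts here; counts are not normalised per plate.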 Raw values are not corrected between plates. No sequences are given here.

Purpose: 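Knock-downs allowing continued mitosis even though DNA is damaged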 (primary screen)
Cell system: Drosophila S2R+ cells
Reagents: long dsRNA against Drosophila genes, about 0.25 µg dsRNA per well
Timing: 4 days of dsRNA, then 4 hours of drug before read-out
Conditions: doxorubicin 0.5 µM for 4 hours to cause double-strand breaks, in cells also given a low, harmless dose of dsRNA against nbs to sensitise the assay
Detection: 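Per-well count of mitotic cells stained for phospho-histone H3 after doxorubicin exposure, used as mitotic index; counts are raw and not normalised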
Reading the numbers: mitotic cells: higher = more cells in mitosis, weaker G2 arrest
Call rule: 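a call needs confirmation in secondary tests, with other dsRNAs and a check of mitotic timing without damage, not just a high primary count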
Meaning of the calls: active = confirmed in follow-up tests; inactive = not confirmed

Which result is listed for Cpr97Eb (Cuticular protein 97Eb) [DRSC15123]?
mitotic cells, replicate 1: 11; Outcome: inactive

For CG30440 [DRSC04775], what was measured?
mitotic cells, replicate 1: 4; Outcome: inactive

For CG30440 [DRSC04845], what was measured?
mitotic cells, replicate 1: 3; Outcome: inactive

For CG30440 [DRSC04855], what was measured?
mitotic cells, replicate 1: 7; Outcome: inactive

With St2 (Sulfotransferase 2) [DRSC15142], how do the results read?
mitotic cells, replicate 1: 9; Outcome: inactive

Which result is listed for St2 (Sulfotransferase 2) [DRSC22624]?
mitotic cells, replicate 1: 9; Outcome: inactive

What did the screen give for CG30096 [DRSC21744]?
mitotic cells, replicate 1: 9; Outcome: inactive

What is on record for CG17652 [DRSC00511]?
mitotic cells, replicate 1: 4; Outcome: inactive

Look-ups from above.
Under “Outcome”, St2 (Sulfotransferase 2) [DRSC22624] is entered as inactive
CG30096 [DRSC21744], Outcome: inactive

The listing continues:
Which result is listed for CG13113 [DRSC02211]?
mitotic cells, replicate 1: 8; Outcome: inactive

What is on record for CG33203 [DRSC14876]?
mitotic cells, replicate 1: 17; Outcome: inactive

What did the screen give for CG33203 [DRSC14877]?
mitotic cells, replicate 1: 4; Outcome: inactive

What is on record for CG33203 [DRSC23428]?
mitotic cells, replicate 1: 2; Outcome: inactive

For CG42237 [DRSC19891], what was measured?
mitotic cells, replicate 1: 13; Outcome: inactive

Which result is listed for CG3473 [DRSC01915]?
mitotic cells, replicate 1: 7; Outcome: inactive

With CG32631 [DRSC19768], how do the results read?
mitotic cells, replicate 1: 9; Outcome: inactive

For CG32631 [DRSC28596], what does the deposit list?
mitotic cells, replicate 1: 3; Outcome: inactive

With Vps15 (Vacuolar protein sorting 15) [DRSC16553], what was measured?
mitotic cells, replicate 1: 8; Outcome: inactive

What is on record for CG10051 [DRSC05959]?
mitotic cells, replicate 1: 4; Outcome: inactive

What is on record for Cht9 (Chitinase 9) [DRSC04079]?
mitotic cells, replicate 1: 4; Outcome: inactive

For Cht9 (Chitinase 9) [DRSC24781], what does the deposit list?
mitotic cells, replicate 1: 11; Outcome: inactive

With dgt5 (dim gamma-tubulin 5) [DRSC07280], what does the deposit list?
mitotic cells, replicate 1: 101; Outcome: inactive

What did the screen give for dgt5 (dim gamma-tubulin 5) [DRSC29379]?
mitotic cells, replicate 1: 28; Outcome: inactive

Which result is listed for CG9582 [DRSC03267]?
mitotic cells, replicate 1: 7; Outcome: inactive
